# Measurements taken from PubChem BioAssay AID2685 (National Center for Advancing Translational Sciences (NCATS), 2010).
# Among all 320,000 compounds or so, about 2,100 (0.66%) were called active. Inconclusive means that the source gave no clear call. Such entries were picked first, then a sample of the others. Calls come from the whole dose curve; as a rule, active = well fitted inhibition curve with a large enough effect in the signal ratio, with a control signal flat (not every such curve was filed as active); inconclusive = small, poorly fitted or top-dose-only effect, or effect the other way, or a change in a side signal; inactive = flat fitted curve, though single readings scatter; the % refers to the signal ratio. Potencies of inconclusive entries are doubtful fits and often do not repeat.
# Assay: qHTS Assay for Lipid Storage Modulators in Drosophila S3 Cells
# Settings: BODIPY lipid droplet fluorescence, 18-24 h, cells fed with added oleic acid; lipid storage change, negative = inhibition: at 46.1 µM (top of the series) unless noted
# Method in brief: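 Drosophila S3 cells got compounds at several concentrations plus oleic acid (400 uM solution). Laser-scanning cytometry with 488 nm excitation read lipid droplets at 500-530 nm and cells at 575-640 nm. Percent activity was relative to 20 uM Triacsin C.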
# % is set by controls: 0 for no effect and ±100 for the full control effect; potency is the fitted concentration of half-maximal effect.
SMILES,"lipid storage change, negative = inhibition",Potency
CCn1c(SCC(=O)N(C)C2CCS(=O)(=O)C2)nnc1-c1cccs1 (stereo not drawn),inconclusive: 9.36%,
Cc1ccc(S(=O)(=O)N2[C@@H](c3ccccc3)C(C(=O)O)=CC[C@H]2c2ccc(Cl)cc2)cc1,inconclusive: 44.5%,
CC(C)(C)NCC1(CO)SC(N)=NC1=O (stereo not drawn),,"inconclusive: 0.651 µM [activator, partial curve, poor fit]"
CCc1nc(N2CCC3(CC2)OCCO3)c2nnn(Cc3ccccc3Cl)c2n1,,"inconclusive: 20.6 µM [falling, single point]"
COc1ccc(S(=O)(=O)N2CCOCC2)c2ccccc12,,"inconclusive: 29.1 µM [activator, single point]"
O=C(COC(=O)c1ccccc1)NCc1ccco1,inconclusive: -0.556%,
CC(C)COC(=S)Nc1ccccc1,inconclusive: -11.6%,
Cc1ccccc1-n1c(SC2CCOC2=O)nnc1-c1ccncc1 (stereo not drawn),,"inconclusive: 0.731 µM [falling, full curve]"
COc1ccccc1/C=C1\Oc2cc(OC(=O)N3CCOCC3)ccc2C1=O,inconclusive: 4.34%,
Cc1ccc(C)c(C(=O)CN2Cc3ccccc3C2=O)c1,inconclusive: 7.38%,
CCCn1cnc2scc(-c3ccc(OC)cc3)c2c1=O,inconclusive: -12%,
Cc1c(C)n(C)c2ccc(C(=O)NCCCN3CCCC3)cc12,,"inconclusive: 18.4 µM [activator, partial curve, poor fit]"
O=C(Nc1ccccc1)N1CCCC1,inconclusive: 14.8%,
CC1(C)C(=O)N(c2ccccc2Cl)C(=O)c2ccccc21,inconclusive: -56.9%,
Cc1[nH]c2ccccc2c1C(=O)C(C)Sc1nnc(C2CC2)o1 (stereo not drawn),inconclusive: -29.6%,
CCOC(=O)C1=C(C)N=c2s/c(=C/c3ccco3)c(=O)n2C1c1cccc(OC)c1 (stereo not drawn),inconclusive: 25.2%,
CCOC(=O)C1(CCOC)CCN(C(C)CCc2ccc(OC)cc2)CC1 (stereo not drawn),inconclusive: 10.8%,
COc1ccccc1C(=O)Nc1ccc(S(=O)(=O)N2CCC(C)CC2)cc1,inconclusive: 120%,
Fc1ccc(-c2csc(N3CCC(c4ccccc4)C3)n2)cc1 (stereo not drawn),inconclusive: 105%,
Cc1ccc(NC(=O)CC2S/C(=N/c3nccs3)N(C)C2=O)c(C)c1 (stereo not drawn),inconclusive: 15.5%,
CCN(CC)S(=O)(=O)c1ccc(-c2nnc(SC)o2)cc1,,"inconclusive: 0.0046 µM [falling, full curve, poor fit]"
COc1ccc(OCC(=O)Nc2cc(C)c(Cl)cc2OC)c([N+](=O)[O-])c1,inconclusive: 1.81%,
O=C(O)CSc1nnc2c(n1)[nH]c1ccccc12,inconclusive: -4.97%,
COc1ccc(-n2nc3c(N4CCC(C(=O)NCCc5ccccc5C)CC4)nnc(C)c3c2C)cc1,,"inconclusive: 29.1 µM [activator, single point]"
COc1cc(C(=O)NC2CCCc3c2cnn3-c2ccccc2F)cc(OC)c1OC (stereo not drawn),,active: 16.4 µM
O=C(O)CCNc1nc(-c2ccccc2)nc2ccccc12,inconclusive: 10.6%,

SMILES,"lipid storage change, negative = inhibition",Potency
CN(C)C(CNC(=O)c1ccc(C(=O)c2ccccc2)cc1)c1ccccc1 (stereo not drawn),,"inconclusive: 9.2 µM [activator, partial curve]"
CC1Sc2ccc(S(=O)(=O)CCC(=O)NC(C)c3ccccc3)cc2NC1=O (stereo not drawn),,"inconclusive: 0.231 µM [activator, full curve, poor fit]"
COC(=O)c1[nH]c2cccc(OC)c2c1NC(=O)CCN1CCC(C)CC1,inconclusive: 0.984%,
O=[N+]([O-])c1cccc(C(=S)N2CCCC2)c1,inactive: 9.9%,
COc1ccc(COCC(O)CN2CCOCC2)cc1OC (stereo not drawn),inconclusive: 30.9% [at 0.0737 µM],
CN(CCCNC(=O)CCC(=O)N1CCOc2ccccc21)Cc1ccccc1,inconclusive: -30.3%,
CC(C)(C)c1ccc(NC(=O)COC(=O)c2ccc3ncsc3c2)cc1,inconclusive: 8.21%,
COc1cccc(CNC(=O)CN(c2cc(C)cc(C)c2)S(=O)(=O)c2c(C)noc2C)c1,inconclusive: 14.6% [at 9.22 µM],
CCN1CCN(c2ccc(S(=O)(=O)N3CCCCC3)cc2NC(=O)CC(NC(C)=O)c2ccccc2)CC1 (stereo not drawn),inconclusive: 40.7%,
Cc1cc(C(=O)O)ccc1-c1ccc(/C=N/n2cnnc2)o1,inconclusive: 19.3%,
COc1ccc(/C(O)=C2/C(=O)C(=O)N(c3ccccn3)C2c2ccc(OC)cc2)cc1 (stereo not drawn),inconclusive: 414%,
CC(=O)N1CCc2cc(S(=O)(=O)NC(CC(C)C)C(=O)N3CCCC3)ccc21 (stereo not drawn),inconclusive: -114%,
Cn1c(CNC(=O)c2ccc3c(c2)OCO3)nnc1SCC(=O)Nc1ccccc1Cl,,"inconclusive: 18.4 µM [activator, partial curve, poor fit]"
COc1ccc(NC(=O)CS(=O)CC(=O)Nc2cccnc2)cc1 (stereo not drawn),,"inconclusive: 6.51 µM [falling, single point]"
O=C(O[C@H]1[C@H](Cc2ccccc2)NS(=O)(=O)[C@H]2C[C@@H]3C=C[C@]12O3)c1ccc([N+](=O)[O-])cc1,,"inconclusive: 2.31 µM [activator, full curve]"
Cc1ccc(N/C=C(/C#N)c2ccsc2)cc1,inconclusive: 17.5%,
C/C(CC(=O)Nc1cccc(F)c1)=N\NC(=O)c1ccncc1,inconclusive: -51.8%,
CCN(CC(=O)Nc1ccc(N2CCOCC2)cc1)C(=O)c1ccc(C#N)cc1,inconclusive: 56.4%,
CCc1ccc2oc(C(=O)NCc3ccncc3)c(C)c2c1,inconclusive: -24.5%,
O=C1CCCc2nc(N3CCCCC3)sc21,,"inconclusive: 0.0731 µM [falling, full curve, poor fit]"
O=C(O)c1ccccc1C(=O)N1CC=C(c2ccccc2)CC1,inactive: -0.597%,
CC(=O)c1ccccc1C(=O)N1CCCC(N2CCN(Cc3ccc4c(c3)OCO4)CC2)C1 (stereo not drawn),inconclusive: 43.3%,
Cc1c(OCC(=O)N2CCC(C(N)=O)CC2)ccc2c1oc(=O)c1ccccc12,inconclusive: -0.612%,
Oc1ccc(C(=S)N2CCN(Cc3ccccc3)CC2)cc1,inconclusive: -21.6%,
CCCCCCc1nnc(NC(=O)OCC)s1,,"inconclusive: 29.1 µM [activator, single point]"
CC(C)Sc1nnc([C@H](C)NC(=O)OC(C)(C)C)o1,,"inconclusive: 25.9 µM [falling, partial curve]"

SMILES,"lipid storage change, negative = inhibition",Potency
CCOc1ccc(CCNC(=O)C2CCN(C(=O)N(C)C)CC2)cc1OCC,inconclusive: 11.3%,
c1ccc2[nH]c(CN3CCCCCC3)nc2c1,inconclusive: 101%,
Cc1ccc(-c2nnc(NC(=O)CCS(=O)(=O)c3ccc(F)cc3)o2)c(C)c1,inconclusive,
CCn1cc(C(=O)NCCCOC(C)C)c(=O)c2cc(S(=O)(=O)N3CCC(C)CC3)ccc21,inconclusive: -20.5%,
CCCN(CCC)Cc1c(C(=O)N/N=C/C(C)=C\c2ccco2)nnn1-c1nonc1N,,active: 11.6 µM
CCC(CO)Nc1ncnc2onc(-c3ccc(F)cc3)c12 (stereo not drawn),inconclusive: 7.03%,
O=C1CCNc2c(Cl)cccc21,inconclusive: -15.6%,
c1ccc(COc2ccccc2CNC23CC4CC(CC(C4)C2)C3)cc1,,"inconclusive: 0.103 µM [falling, full curve, poor fit]"
C=CCNC(=O)COc1coc(CN2CCN(C(=O)c3ccco3)CC2)cc1=O,,"inconclusive: 29.1 µM [activator, single point]"
Cc1occc1-c1nc(-c2ccccn2)no1,,"inconclusive: 29.1 µM [activator, single point]"
O=C1C2CCCN2C(c2ccco2)N1c1ccc(F)cc1 (stereo not drawn),inconclusive: -23.3%,
O=C(O)c1ccccc1C(=O)OCCCc1ccncc1,inconclusive: -38.5%,
CCCCC(=O)NC(=S)Nc1cccc(NC(=O)CC)c1,,"inconclusive: 29.1 µM [falling, single point]"
N#CC1=C2SCCN2C(=O)C(C#N)C12CCCCC2 (stereo not drawn),,"inconclusive: 6.51 µM [activator, single point]"
COC(=O)CSc1nccc(C)n1,inconclusive: -16.3%,
Cc1ccc2c(=O)c(CN3CCCCCC3)c(C)[nH]c2c1C,inconclusive: 51.4%,
CC(=O)O[C@H]1CC[C@]2(C)[C@H]3CC=C4[C@@H]5[C@@H](C)[C@H](C)CC[C@]5(C(=O)O)CC[C@@]4(C)[C@]3(C)CC[C@H]2C1(C)C,inconclusive: 10.5%,
Cc1ccc(CNC(=O)COc2ccc(S(=O)(=O)N3CCOCC3)cc2)cc1,inconclusive: 24.6%,
CC(C)NC(=O)NC(=O)COC(=O)C1(C)CC1(Cl)Cl (stereo not drawn),inconclusive: 19.5%,
Cc1cc(=O)oc2cc(NC(=O)c3ccc(OC(F)F)cc3)ccc12,inconclusive: -32.7%,
COc1ccccc1CNC(=O)COC(=O)c1cc(-c2ccco2)nc2ccccc12,,"inconclusive: 23.1 µM [activator, partial curve]"
CCOC(=O)CS(=O)(=O)c1ccc(O)cc1,inconclusive: 43.4%,
CC(=O)c1ccc(NC(=S)NC(NC(=O)c2ccco2)C(Cl)(Cl)Cl)cc1 (stereo not drawn),,"inconclusive: 0.259 µM [activator, partial curve, poor fit]"
O=C(CN1CCN(c2cccc(C(F)(F)F)c2)CC1)N(C1CCCC1)C1CCS(=O)(=O)C1 (stereo not drawn),,"inconclusive: 4.11 µM [falling, full curve, poor fit]"
c1ccc2nc3c(cc2c1)CCCCC3,inconclusive: 32.8%,
CCN1C(=O)CC(N2CCN(C(c3ccccc3)c3ccccc3)CC2)C1=O (stereo not drawn),inconclusive: -53.3%,

# Entries listed so far with an NH in an aromatic ring (five):
SMILES,"lipid storage change, negative = inhibition",Potency
Cc1[nH]c2ccccc2c1C(=O)C(C)Sc1nnc(C2CC2)o1 (stereo not drawn),inconclusive: -29.6%,
O=C(O)CSc1nnc2c(n1)[nH]c1ccccc12,inconclusive: -4.97%,
COC(=O)c1[nH]c2cccc(OC)c2c1NC(=O)CCN1CCC(C)CC1,inconclusive: 0.984%,
c1ccc2[nH]c(CN3CCCCCC3)nc2c1,inconclusive: 101%,
Cc1ccc2c(=O)c(CN3CCCCCC3)c(C)[nH]c2c1C,inconclusive: 51.4%,
